According to patent US4118561A, “7-(Substituted)-7H-pyrrolo[3,2-f]quinazoline-1,3-diamines” (priority 1977, dated 1978):
For at least one compound, name, drawing or mass did not settle the structure.

Legend:
[1] = test system: strains of P. berghei resistant to chloroquine, sulfones, cycloguanil, and pyrimethamine; test: Activity against resistant strains of P. berghei in mice; type: in vivo, P. berghei (infected mice)
Source text: Activity against strains of P. berghei resistant to chloroquine, sulfones, cycloguanil, and pyrimethamine, is shown by the testing of 7-(phenylmethyl)-7H-pyrrolo[3,2-f]quinazoline-1,3-diamine and 7-[(2,5-dimethylphenyl)methyl]-7H-pyrrolo[3,2-f]quinazoline-1,3-diamine in mice against such resistant strains.

bacterial infections = test: Synergism with sulfamethoxazole against bacterial infections in mice, oral; type: in vivo
Experimental: The invention also provides compounds which will potentiate the antibacterial effects of sulfa drugs.
The test agents are weighed, suspended in 0.5% aqueous carboxymethyl cellulose, homogenized (glass tissue grinder) and diluted according to the design of the experiment. Mice (male, 18±1 g., CD-1 strain) are pre-weighed, pooled, infected at random intraperitoneally with a 0.5 ml. standardized suspension (LD95 ±5%) of the bacterial organism in 5% gastric mucin and treated at random with single doses of the test agents either at the time of infection or six hours after infecting. The treated groups consist of ten mice per dosage level. Deaths are recorded daily for 14 days and the PD50 (mice are treated at time of infection) and CD50 (mice are treated six hours after infecting) values are calculated by the method of Reed and Muench [Amer. J. Hyg., 27, 493 (1938)].

Nc1nc(N)c2c(ccc3c2ccn3Cc2ccccc2)n1 [Example 2, 7-(Phenylmethyl)-7H-pyrrolo[3,2-f]quinazoline-1,3-diamine]
Activity against resistant strains [1]: Activity
synergistic effect with sulfamethoxazole (bacterial infections): synergistic effect
